This experiment has as its target Histone deacetylase 3 (HDAC3), FLAG-tagged (UniProt O15379). Nature of the experiment: co-IP; COS-7 cells co-transfected with FLAG-HDAC3 and myc-BRMS1; lysate immunoprecipitated with 1 ug anti-FLAG Ab, immunoblotted with anti-myc Ab (1:500). A general note: In western blotting, separated proteins are transferred to a membrane and probed.

Chains of the proteins cited; added tags and fusions are not shown.
UniProt O15379: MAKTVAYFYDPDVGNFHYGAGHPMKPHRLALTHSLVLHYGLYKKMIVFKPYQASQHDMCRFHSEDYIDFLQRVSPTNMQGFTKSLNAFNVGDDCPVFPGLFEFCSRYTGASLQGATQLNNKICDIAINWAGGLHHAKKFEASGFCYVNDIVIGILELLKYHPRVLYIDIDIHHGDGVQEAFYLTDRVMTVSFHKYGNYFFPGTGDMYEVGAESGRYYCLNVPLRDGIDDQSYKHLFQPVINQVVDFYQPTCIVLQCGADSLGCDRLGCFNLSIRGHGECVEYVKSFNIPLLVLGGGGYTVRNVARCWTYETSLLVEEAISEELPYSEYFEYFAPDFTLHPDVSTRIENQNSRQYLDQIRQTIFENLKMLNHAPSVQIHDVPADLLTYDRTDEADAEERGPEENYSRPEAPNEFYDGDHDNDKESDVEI

These are yes or no findings as the source states them, for the method shown. In cells and extracts the contact can be indirect. Some binding calls cover weakened binding; strength is not graded here. Tags and fused reporters may be left off the sequences shown.

B1: Breast cancer metastasis suppressor 1 (BRMS1), myc-tagged (protein, UniProt Q9HCU9 1-246)
chain: MPVQPPSKDTEEMEAEGDSAAEMNGEEEESEEERSGSQTESEEESSEMDDEDYERRRSECVSEMLDLEKQFSELKEKLFRERLSQLRLRLEEVGAERAPEYTEPLGGLQRSLKIRIQVAGIYKGFCLDVIRNKYECELQGAKQHLESEKLLLYDTLQGELQERIQRLEEDRQSLDLSSEWWDDKLHARGSSRSWDSLPPSKRKKAPLVSGPYIVYMLQEIDILEDWTAIKKARAAVSPQKRKSDGP
As to B1, the binding result was “binds”.
